No constants are given. Whether binding was seen depends on the method and setting. Binding seen in cells or lysates may run through a third protein. Some entries that bind do so weakly or less than the wild type.
Tests used:
[1] = target: CCAAT/enhancer binding protein β (human) (UniProt P17676); assay: co-IP; lysate of transfected HNPE cells (500 μg protein, hypotonic buffer 20 mM Tris pH 7.4, 10 mM EDTA); precipitated with mouse monoclonal anti-C/EBPβ at 4°C overnight and Protein A/G magnetic beads; blot with rabbit anti-c-Jun
[2] = target: CCAAT/enhancer binding protein β (human) (UniProt P17676); assay: co-IP; ex vitro mixture of two HNPE lysates, one with overexpressed c-Jun and one with overexpressed C/EBPβ; precipitated with mouse anti-C/EBPβ; blot with rabbit anti-c-Jun

Protein sequences, listed by entry. Tags and fused reporters are not part of them.
UniProt P17676: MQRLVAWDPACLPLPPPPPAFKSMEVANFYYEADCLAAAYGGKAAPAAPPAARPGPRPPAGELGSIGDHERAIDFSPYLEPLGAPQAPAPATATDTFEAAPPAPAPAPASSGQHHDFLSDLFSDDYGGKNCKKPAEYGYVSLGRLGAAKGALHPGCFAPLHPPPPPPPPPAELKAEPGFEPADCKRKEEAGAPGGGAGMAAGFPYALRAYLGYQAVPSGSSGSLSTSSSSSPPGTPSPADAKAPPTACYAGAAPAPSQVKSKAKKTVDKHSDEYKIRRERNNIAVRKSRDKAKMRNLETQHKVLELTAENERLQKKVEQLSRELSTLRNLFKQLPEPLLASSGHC
UniProt P05412: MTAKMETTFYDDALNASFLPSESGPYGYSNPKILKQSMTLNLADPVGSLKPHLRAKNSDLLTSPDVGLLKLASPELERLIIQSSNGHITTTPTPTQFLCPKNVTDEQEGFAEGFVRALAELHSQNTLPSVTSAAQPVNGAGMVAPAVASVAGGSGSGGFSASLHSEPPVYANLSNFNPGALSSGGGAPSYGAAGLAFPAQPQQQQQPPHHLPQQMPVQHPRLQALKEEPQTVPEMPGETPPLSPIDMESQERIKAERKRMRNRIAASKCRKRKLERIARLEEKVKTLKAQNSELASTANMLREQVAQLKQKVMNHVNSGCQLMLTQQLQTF

binding [1] | binding [2] | Substance
binds |  | c-Jun (endogenous) (from UniProt P05412 1-331)
binds | binds | c-Jun (from UniProt P05412 1-331)
